Test results as given in paper PMC4802042.
No constants are given. Whether binding was seen depends on the method and setting.

What was measured:
MKP7-CD (F285D) (human) = MKP7-CD (F285D) (human) (UniProt Q9BY84); experiment: SEC; Superdex-200 10/300, 10 mM HEPES pH 7.5, 150 mM NaCl, 2 mM dithiothreitol; 3 molar equivalents of the MKP domain mixed with 1 of JNK1; column calibrated with mass standards; fractions on SDS-PAGE, Coomassie; both purified
[1] = target: MKP7 catalytic domain (MKP7-CD, residues 156-301) (human) (UniProt Q9BY84); experiment: as above

| binding (MKP7-CD (F285D) (human)) | binding [1] | Binder |
| --- | --- | --- |
| no binding | – | MKP7-CD (F285D) (domain or fragment, UniProt Q9BY84 156-301) NIGPTRILPNLYLGCQRDVLNKELMQQNGIGYVLNASNTCPKPDFIPESHFLRVPVNDSFCEKILPWLDKSVDFIEKAKASNGCVLVHCLAGISRSATIAIAYIMKRMDMSLDEAYRFVKEKRPTISPNDNFLGQLLDYEKKIKNQ |
| – | no binding | MKP7 catalytic domain (MKP7-CD, residues 156-301) (domain or fragment, UniProt Q9BY84 156-301) NIGPTRILPNLYLGCQRDVLNKELMQQNGIGYVLNASNTCPKPDFIPESHFLRVPVNDSFCEKILPWLDKSVDFIEKAKASNGCVLVHCLAGISRSATIAIAYIMKRMDMSLDEAYRFVKEKRPTISPNFNFLGQLLDYEKKIKNQ |
